In PubChem BioAssay AID2417 (National Center for Advancing Translational Sciences (NCATS), 2010):
Screen size: about 140,000 compounds; about 4,300 (3.1%) were called active. The inconclusive results got no clear call from the source; some entries with a clear call stand among them for comparison.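 The calls were made as follows: active = readout at or below -70, meaning at least 70% loss of cells showing the perinucleolar compartment, a nuclear body marking cancer cells; inconclusive = readout between -30 and a set limit; inactive = the rest.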

Assay: High Content Assay for Compounds that inhibit the Assembly of the Perinucleolar Compartment;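 also: plate controls were DMSO wells for no effect and camptothecin positive control wells for full effect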
Conditions: PC3M PTB-GFP, PNC prevalence imaging, 16 h; at 10 µM; hits give low values
Outline: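 Compounds are pinned in duplicate onto adhered PC3M cells stably expressing GFP-tagged PTB and incubated 16 h at 37 C. Cells are then fixed, nuclei stained with Hoechst, and PNC-positive cells counted.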

| SMILES | activity change (PNC), negative = inhibition |
| --- | --- |
| Nc1nonc1/C(=N/O)N1CCCC1 | inconclusive: -41.4% |
| O=C(c1ccccc1)c1nn(-c2ccc(Cl)cc2)cc1C(=O)c1cc2ccccc2oc1=O | inactive: 3.8% |
| COC(=O)c1cc(C(=O)OC)n(Cc2ccc(F)cc2)n1 | inconclusive: -63.6% |
| COC(=O)C(CC(=O)c1ccc(Cl)cc1)c1ccc(C)cc1 (configuration not stated) | active: -100% |
| CC(C)c1ccc2c(c1)C1(NN=C(c3ccccc3)S1)C(=O)N2 (configuration not stated) | inactive: -29.3% |
| Cc1cc(C)cc(NC(=O)CCn2ccnc2C)c1 | inconclusive: -55.7% |
| O=C(N/N=C\c1ccc(Cl)s1)c1cccs1 | inconclusive: -31.5% |
| CC(=O)Oc1cccc(N2C(=O)C3C(C2=O)C2C=CC3C23CC3)c1 (configuration not stated) | inactive: -7.27% |
| CCCC(=O)Nc1nc(-c2ccccc2)ns1 | inconclusive: -70.9% |
| Cc1ccc(N2C(=O)NC(C(F)(F)F)(C(F)(F)F)C3=C2CC(C)(C)CC3=O)cc1 | inactive: -23% |
| O=C1CC(c2ccccc2)CC2=C1C(c1ccccn1)Nc1ccccc1N2 (configuration not stated) | inactive: -11% |
| Cc1ccc(OCC(=O)Nc2cccc(-c3nnc(-c4ccccc4)o3)c2)c(C)c1 | inconclusive: -38.2% |
| O=C(CCC(=O)Nc1nnc(C2CCCCC2)s1)NCc1cccs1 | inconclusive: -49.1% |
| CCC(C)NC(=O)CSc1nc2scc(-c3ccccc3)c2c(=O)[nH]1 (configuration not stated) | inconclusive: -75.8% |
| Cc1ccc(C)c(OCCn2cc(/C=C(/C#N)C(=O)NCC3CCCO3)c3ccccc32)c1 (configuration not stated) | inconclusive: -46.3% |
| Cn1c(=O)[nH]c(=O)c2c1nc(N1CCN(Cc3ccccc3)CC1)n2CCCc1ccccc1 | inactive: -29.7% |
| CC/C(=N\NC(=O)C(N)=O)c1ccccc1O | inactive: 2.3% |
| O=C(NC(=S)Nc1ccc(S(=O)(=O)N2CCCCC2)cc1)c1ccc(Cl)cc1 | inconclusive: -62.9% |
| Cc1nnc(NC(=O)c2ccc(C)c(S(=O)(=O)N3CCOCC3)c2)s1 | inconclusive: -77.6% |
| Cc1ccsc1C(=O)NNC(=O)C1CCCCC1C(=O)O (configuration not stated) | inconclusive: -41% |
| COc1ccc(-c2cc(C(F)(F)F)nc(SCCC(=O)Nc3cc(C)on3)n2)cc1 | inactive: 21.8% |
| CC(=O)c1ccc(-n2nnnc2SCC(=O)Nc2sc(C)c(C)c2C#N)cc1 | inactive: -9.89% |
| CC(=O)c1c(C)[nH]c(C(=O)OCC(=O)Nc2ncc(Cl)c(C)c2Cl)c1C | active: -100% |

Entries listed so far that contain fluorine, in the order listed:

| SMILES | activity change (PNC), negative = inhibition |
| --- | --- |
| COC(=O)c1cc(C(=O)OC)n(Cc2ccc(F)cc2)n1 | inconclusive: -63.6% |
| Cc1ccc(N2C(=O)NC(C(F)(F)F)(C(F)(F)F)C3=C2CC(C)(C)CC3=O)cc1 | inactive: -23% |
| COc1ccc(-c2cc(C(F)(F)F)nc(SCCC(=O)Nc3cc(C)on3)n2)cc1 | inactive: 21.8% |

More structures follow.

| SMILES | activity change (PNC), negative = inhibition |
| --- | --- |
| COc1cccc(NC(=O)Nc2ccc3nsnc3c2)c1 | inconclusive: -49.7% |
| S=C(Nc1ccccc1)Nc1nc2ccccc2n1CCOc1ccc(Cl)cc1 | inconclusive: -44% |
| CCN(/N=C/C=C/c1ccccc1)c1cc(=O)n(C)c(=O)[nH]1 | inconclusive: -37.7% |
| CCOC(=O)CC1=Nc2ccccc2NC(=O)C1 | inconclusive: -38.6% |
| CN(C)C(C)(C)C#CCCCCC#CC(C)(C)N(C)C | inconclusive: -37.1% |
| CCCOc1ccc(C2c3c(oc4cc(C)c(C)cc4c3=O)C(=O)N2CCCN(C)C)cc1 (configuration not stated) | inconclusive: -46.4% |
| CS(=O)(=O)N(CC(=O)N1CCCCCC1)c1ccc2c(c1)OCCO2 | inconclusive: -56.6% |
| O=C(CSc1nc2ccccc2s1)N1N=C(c2cccs2)CC1c1ccc(F)cc1 (configuration not stated) | inconclusive: -45.3% |
| Cc1ccc(C(=O)NN(C)c2nc3ccccc3nc2C(F)(F)F)cc1 | inconclusive: -48.5% |
| CN(C)c1ccc(C(=O)c2ccc(O)cc2O)cc1 | inconclusive: -36% |
| c1ccc(CCn2c(C3CC3)nc3ccccc32)cc1 | inactive: 17.3% |
| CCn1c(SCC(=O)N2CCOCC2)nc(O)cc1=O | inactive: 25% |
| CCN(Cc1ccccc1)C(c1cccc(C#N)c1)c1nnnn1C(C)(C)C (configuration not stated) | inconclusive: -31% |
| O=C(Cn1cnc2c(nnn2Cc2ccccc2F)c1=O)N1CCN(c2ccccc2)CC1 | active: -82.7% |
| O=C(CN1C(=O)CSc2ccccc21)NC1CCCC1 | inconclusive: -40.4% |
| CCCc1nnc(NC(=O)Cn2cnc3ccccc3c2=O)s1 | inconclusive: -31.9% |
| Cc1ccc(NC(=O)C2CCCN(S(=O)(=O)c3c(C)noc3C)C2)cc1F (configuration not stated) | inconclusive: -39.1% |
| O=C(CNC(=O)c1ccc(Br)o1)Nc1cccc(-c2cnc3ccccc3n2)c1 | inconclusive: -45.8% |
| CCCc1nc2ccccc2c(=O)n1/N=C/c1c(C)[nH]n(-c2ccc(C)cc2)c1=O | inconclusive: -30.4% |
| O=C(Nc1ccccc1C(=O)NCc1cccnc1)c1ccco1 | inconclusive: -41.9% |
| COC(=O)C1=C(C)C(c2cccs2)NC(=O)N1C (configuration not stated) | active: -100% |
| Cc1noc2ncc(C(=O)c3cc(F)ccc3O)cc12 | inactive: 11.2% |
| Cc1cc(C)cc(NC(=O)CN2CCN(CCN=CC3=C(O)CC(C)(C)CC3=O)CC2)c1 | inconclusive: -57.6% |

| SMILES | activity change (PNC), negative = inhibition |
| --- | --- |
| CNC(=S)Nc1cc(OC)ccc1OC | inconclusive: -58.1% |
| COc1ccc(Cl)cc1NS(=O)(=O)c1cc(Cl)ccc1OC | inactive: 1.33% |
| CCCn1c(SCC(=O)NCCc2ccccc2)nnc1-c1ccccn1 | inconclusive: -37.3% |
| CCOc1ccccc1N1C(=O)CC(Sc2ncccc2C(=O)O)C1=O (configuration not stated) | inconclusive: -56.5% |
| COc1ccc(CCNc2c(C)c(C)nc3ncnn23)cc1 | inactive: 63.8% |
| COc1ccc(Nc2cc(C)nc3ncnn23)c(OC)c1 | inconclusive: -35.7% |
| COc1ccc([N+](=O)[O-])cc1NC(=O)CCN1CCN(CCO)CC1 | inconclusive: -40.8% |
| CC(C)(C)c1nnc(SCC(=O)c2ccccc2)n(N)c1=O | active: -114% |
| COc1ccc(-c2cn(-c3ccc(OC)cc3)c3[n+]2-c2ccccc2CC3)cc1 | active: -96.2% |
| C=C(C)CSc1nc2ncc(Cl)cc2[nH]1 | inactive: 24.2% |
| O=S(=O)([O-])CCC[n+]1c(SCCCS(=O)(=O)O)sc2ccc(Cl)cc21 | inactive: -8.7% |
| COc1cc(/C=c2\sc3n(c2=O)C(c2ccccc2)C(c2ccccc2)=NN=3)ccc1O (configuration not stated) | inconclusive: -49.7% |
| Cc1n[nH]c(C)c1N1C(=O)c2cccc3c(Br)ccc(c23)C1=O | inconclusive: -38.8% |
| COc1cc(NS(=O)(=O)c2ccc(N/C=C(\C=O)c3nc4cc(Cl)ccc4o3)cc2)nc(OC)n1 | active: -105% |
| Cc1cccc(NC(=S)N/C(=N/S(=O)(=O)c2ccccc2)c2ccccc2)c1 | inactive: -24.1% |
| Cc1ccc(O)c(C(=O)c2cc(C#N)c(=O)n(-c3c(C)n(C)n(-c4ccccc4)c3=O)c2)c1 | inactive: -14.7% |
| CCc1ccc(NC2CC(=O)N(c3ccc(OC)cc3OC)C2=O)cc1 (configuration not stated) | inconclusive: -52% |
| CC(CCc1ccccc1)NC(=O)/C=C/c1ccccc1 (configuration not stated) | inactive: 52.1% |
| CC(=O)N1CC=CC1(CC(C)C)C(=O)NCCc1c[nH]c2ccccc12 (configuration not stated) | active: -88.2% |
| Cc1ccc(CN2C(=O)CCC2C(=O)NCC2CCCO2)cc1 (configuration not stated) | inconclusive: -80% |
| CCNC(=S)Nc1cccc([N+](=O)[O-])c1 | inconclusive: -38.7% |
| Cc1ccc(/C=C/C(=O)OC(C)C(=O)Nc2ccc(Cl)cn2)o1 (configuration not stated) | inconclusive: -48.7% |
| O=C(Nc1ccccc1Cl)N1CCn2c(nc3ccccc32)C1 | active: -111% |

A stretch from further up, as a working copy:

| SMILES | activity change (PNC), negative = inhibition |
| --- | --- |
| CC(=O)N1CC=CC1(CC(C)C)C(=O)NCCc1c[nH]c2ccccc12 (configuration not stated) | active: -88.2% |
| Cc1ccc(CN2C(=O)CCC2C(=O)NCC2CCCO2)cc1 (configuration not stated) | inconclusive: -80% |
| CCNC(=S)Nc1cccc([N+](=O)[O-])c1 | inconclusive: -38.7% |

The results go on:

| SMILES | activity change (PNC), negative = inhibition |
| --- | --- |
| CN1C(=O)c2ccc(S(=O)(=O)c3ccc(C(=O)O)cc3)cc2C1=O | inconclusive: -70.9% |
| CC1Cc2ccccc2N1C(=O)CSc1nc2cc3c(cc2cc1C#N)OCO3 (configuration not stated) | inactive: -4.27% |
| CCCc1c(C)c2cccc(C)c2[nH]c1=O | inactive: -18.6% |
| CCOC(=O)c1c(/N=C/c2ccccc2O)sc2c1CCC2 | inactive: -28% |
| CCC(=O)NCCNc1ccc([N+](=O)[O-])cn1 | active: -80.7% |
| CCOc1ccc(-n2c(SCC(=O)NCc3ccco3)nc3c(c2=O)SCC3)cc1 | inconclusive: -41% |
| NC(=O)Cn1c(=O)n(Cc2ccco2)c(=O)c2c3c(sc21)CCCCC3 | inactive: -19.6% |
| CC(=O)N(C)c1ccc(NC(=O)C(F)(F)F)cc1 | inconclusive: -60.6% |
| O=C(CC(=O)c1ccccc1O)c1cccc(F)c1 | inactive: -27.6% |
| Cc1[nH]c2ccccc2c1C(=O)CNc1nccs1 | inconclusive: -67.8% |
| CCOC(=O)N1CCN(C(=O)COc2ccc(Cl)cc2)CC1 | inconclusive: -76.7% |
| Cc1ccnc(N2C(=O)c3cccc4c([N+](=O)[O-])ccc(c34)C2=O)c1 | inactive: 28% |
| CS(=O)(=O)c1ccc(N2CCOCC2)c(S(C)(=O)=O)c1 | active: -107% |
| Cc1ccc(Nc2nc(N)nc(CN3CCN(C)CC3)n2)cc1C | inconclusive: -46% |
| C(=N\n1cnnc1)/c1cccc(OCCOc2ccccc2)c1 | inactive: -9.9% |
| CCC(C)[C@H](NC(=O)Nc1cccc(Br)c1)C(=O)OC (some centres not stated) | inactive: 21.4% |
| CCCCn1c(Nc2ccccc2)nc2ccccc21 | inconclusive: -61.3% |
| CCCCOc1ccc(C2OC34CCCCC3C(C#N)(C#N)C2(C#N)C(=N)O4)cc1 (configuration not stated) | inconclusive: -50.2% |
| Cc1cccn2c(=O)c3cc(C(=O)NCCc4ccccc4)c(=N)n(CCCn4ccnc4)c3nc12 | inactive: 38.5% |
| Cc1ccccc1/C=N/NC(=O)Cn1nnc(N)n1 | inconclusive: -43.8% |
| O=C1c2cccc3c(O)ccc(c23)C(=O)N1Cc1ccccc1 | active: -90.3% |
| O=C(c1ccc(NS(=O)(=O)c2ccccc2)cc1)N1CCCC1 | inconclusive: -46.1% |
| Cc1ccnc(NC(=O)CCC2COc3ccccc3O2)c1 (configuration not stated) | inconclusive: -40.9% |
